Data taken from patent publication US20130289100.
Where cells or extracts were used, other partners may take part.

Chains of the proteins cited; added tags and fusions are not shown. A line that says so, or that is headed by a name, gives the form on record, which may keep a tag or linker.
GluA2Qflip AMPA receptor subunit (Rattus norvegicus), one chain, as listed by the source: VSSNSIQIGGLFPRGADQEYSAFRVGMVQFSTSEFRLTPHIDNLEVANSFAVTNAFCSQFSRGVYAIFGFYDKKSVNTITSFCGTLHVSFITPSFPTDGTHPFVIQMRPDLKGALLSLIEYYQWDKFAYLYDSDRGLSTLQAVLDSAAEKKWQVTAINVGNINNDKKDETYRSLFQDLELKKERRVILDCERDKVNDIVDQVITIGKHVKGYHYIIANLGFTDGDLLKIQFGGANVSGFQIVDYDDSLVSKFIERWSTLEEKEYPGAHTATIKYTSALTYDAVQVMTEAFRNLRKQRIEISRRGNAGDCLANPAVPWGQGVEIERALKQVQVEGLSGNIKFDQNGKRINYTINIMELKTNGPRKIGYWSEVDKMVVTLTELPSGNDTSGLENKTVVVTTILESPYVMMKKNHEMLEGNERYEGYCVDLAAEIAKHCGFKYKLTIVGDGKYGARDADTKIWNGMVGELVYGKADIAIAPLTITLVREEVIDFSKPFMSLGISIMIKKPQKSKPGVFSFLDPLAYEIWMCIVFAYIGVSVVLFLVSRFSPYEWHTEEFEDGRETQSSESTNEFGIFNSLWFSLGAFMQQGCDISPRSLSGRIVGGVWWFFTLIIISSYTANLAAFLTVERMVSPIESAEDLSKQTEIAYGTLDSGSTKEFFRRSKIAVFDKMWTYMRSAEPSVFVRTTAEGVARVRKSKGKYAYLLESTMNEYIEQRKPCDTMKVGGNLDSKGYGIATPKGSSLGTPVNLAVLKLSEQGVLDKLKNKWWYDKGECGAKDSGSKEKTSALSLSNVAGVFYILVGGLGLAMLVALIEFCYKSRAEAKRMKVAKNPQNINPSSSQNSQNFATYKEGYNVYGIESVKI

Test system: GluA2Qflip AMPA receptor subunit (Rattus norvegicus)
Assay: competition with a labelled probe
Conditions: binding unaffected by competitive inhibitor NBQX, data not shown; protein in a lysate after overexpression

GGGAGAAUUCAACUGCCAUCUAGGCAGAAGUGUAAUAGCCAACGGUGCCAGUCCGAAACGGAUCGUUAGAGCAUCAGUACUACAAGCUUCUGGACUCGGU [AF1422]
binding result: binds
